Measured values published in PMC3404970.
No constants are given. Whether binding was seen depends on the method and setting. Binding seen in cells or lysates may run through a third protein. Some entries that bind do so weakly or less than the wild type.

Target: T1, biotinylated synthetic DRIP-2 peptide (VDR specific LXXLL nuclear receptor binding motif peptide)
T1 sequence (peptide, biotin (position not stated)): NTKNHPMLMNLLKDNPAQD
Assay: pull-down; biotinylated DRIP-2 peptide (1 ug) incubated with 6 mg HaCaT lysate overnight at 4 C, captured on magnetic streptavidin beads, washed with TBS + 0.05% TWEEN, western blot with anti-VDR and anti-PIM-1; control lysate without peptide; only the target purified

binding: binds
B1: endogenous VDR of human HaCaT keratinocytes (receptor, UniProt P11473 1-427)
chain: MEAMAASTSLPDPGDFDRNVPRICGVCGDRATGFHFNAMTCEGCKGFFRRSMKRKALFTCPFNGDCRITKDNRRHCQACRLKRCVDIGMMKEFILTDEEVQRKREMILKRKEEEALKDSLRPKLSEEQQRIIAILLDAHHKTYDPTYSDFCQFRPPVRVNDGGGSHPSRPNSRHTPSFSGDSSSSCSDHCITSSDMMDSSSFSNLDLSEEDSDDPSVTLELSQLSMLPHLADLVSYSIQKVIGFAKMIPGFRDLTSEDQIVLLKSSAIEVIMLRSNESFTMDDMSWTCGNQDYKYRVSDVTKAGHSLELIEPLIKFQVGLKKLNLHEEEHVLLMAICIVSPDRPGVQDAALIEAIQDRLSNTLQTYIRCRHPPPGSHLLYAKMIQKLADLRSLNEEHSKQYRCLSFQPECSMKLTPLVLEVFGNEIS
